Assay results reported in article PMC8805025.
For at least one entry, the source does not settle the construct or the ends of the probe.

System: CcNsdD2-C (C-terminal DNA-binding domain of CcNsdD2) (Coprinopsis cinerea AmutBmut (pab1-1))
Assay: EMSA
Details: competed by 20-fold cold probe; EMSA: 30 uL, 1x EMSA binding buffer (composition not given), 1.5 ug salmon sperm DNA, 50 ng probe, 4 ug CcNsdD2-C, 37 C 30 min; 5% PAGE in 1x TBE pH 8.3; recombinant protein; label: Cy5; probe letters rebuilt from the primers and the genome

## AGCACGTGGTCGAAAGTGGTTACTTTAACTAAATTCAGGGCACCCAAGCCTTGTGTCGATCTCGTGATCATCACACAAAATTCTGACGTCATTAAAAAAGATGTGTCTACATTCGGATTGAATCTTCGCAGCCTCGGAGAGTGTAGTGCGGCTTTCGACCACGTGCT (double strand) [dst1 promoter probe]
  binding result: binds
